Measured values from paper PMC7819943, “Rice protein-binding microarrays: a tool to detect cis-acting elements near promoter regions in rice”.
The other results are listed elsewhere or left out.

Chains of the proteins cited; added tags and fusions are not shown.
UniProt Q0JBA9, entry or part of it: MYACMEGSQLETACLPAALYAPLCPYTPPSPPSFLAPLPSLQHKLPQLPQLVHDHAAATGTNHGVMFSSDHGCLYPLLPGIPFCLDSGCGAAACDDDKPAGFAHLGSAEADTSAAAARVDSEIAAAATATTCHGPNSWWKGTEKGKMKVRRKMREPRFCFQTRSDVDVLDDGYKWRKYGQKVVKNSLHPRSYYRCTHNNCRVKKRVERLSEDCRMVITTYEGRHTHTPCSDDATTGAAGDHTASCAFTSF

Biological target: OsWRKY34 (Oryza sativa, UniProt Q0JBA9 1-250)
Assay: protein-binding microarray (RPBM); PBS, 2% BSA, 51.3 ng/ul salmon testes DNA, 50 uM zinc acetate, 200 nM TF, 25 C, 1 h; high values mean tight binding
Conditions: protein: recombinant; tags: N-terminal polyhistidine and DsRed monomer fusion (pET32a); label: CyDye5-dUTP incorporated in the synthesized complementary strand; 3' TTTTT single-stranded linker to array surface; dsDNA, one strand shown
Summary of the method: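 Binding signal is reported as fluorescence intensity per feature (arbitrary units) from an Axon 4000B scanner. Incubation used 200 nM of each Ni–NTA-purified, N-terminally polyhistidine- and DsRed-fused transcription factor from E. coli BL21-CodonPlus on a double-stranded custom Agilent array for 1 h at 25 °C, with 50 µM zinc acetate in the buffer, followed by washing.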

Which binding signal does the source give for “TACCCTTTTTCTGGTCATTTTGCCTCTGTATCAGTGGGGACGGAGTCACCTAGTGCAG” here?
The binding signal was 11200 fluorescence intensity (a.u.).

With “ATCGTATTACCGGAGTCAAAATGCACTTATTCCTCCTTCACGGAGTCACCTAGTGCAG” as the sequence, how does the binding signal read?
The binding signal was 8920 fluorescence intensity (a.u.).

With “GATGATGATGATTTTGGTAGGAGATATGGATCGTGTTGGTCGGAGTCACCTAGTGCAG” as the sequence, how does the binding signal read?
Its binding signal is 11300 fluorescence intensity (a.u.).

For “ATCGTTAAGTCTGATCACCACTCCCTTTACAGCTCTTTACCGGAGTCACCTAGTGCAG”, which binding signal is on record?
The binding signal was 10800 fluorescence intensity (a.u.).

Which binding signal does the source give for “ACTATGTTTTCCTTTTTTTATTCTGAATTTTAATTAGCTTCGGAGTCACCTAGTGCAG” here?
The binding signal was 8400 fluorescence intensity (a.u.).

Which binding signal does the source give for “ATATTCACTTTTTACCGATGCATTCCACAAAAGATTCACTCGGAGTCACCTAGTGCAG” here?
Its binding signal is 8590 fluorescence intensity (a.u.).

For “CCCATCAAGAATATCTTCCTACACGCAATGCATCTTATGTCGGAGTCACCTAGTGCAG”, which binding signal is on record?
The binding signal was 9880 fluorescence intensity (a.u.).

Which binding signal does the source give for “ACACTTTCTGTTCCAACTGTAAAAAGGCACACCACAAAAACGGAGTCACCTAGTGCAG” here?
The binding signal was 8810 fluorescence intensity (a.u.).

For “CGGTATCCTCTAATTATTTTAGAATCTCATGTCCCAAATTCGGAGTCACCTAGTGCAG”, which binding signal is on record?
The binding signal was 8190 fluorescence intensity (a.u.).

“ACTTACCCTAGGCCCATCTCCTCCACAGCAAGCACTCTCACGGAGTCACCTAGTGCAG” was tested. Which binding signal did it give?
Its binding signal is 10400 fluorescence intensity (a.u.).

Which binding signal does the source give for “CACACACAAACCATTGCAACTGCACTACACTGCAGCACACCGGAGTCACCTAGTGCAG” here?
Its binding signal is 9060 fluorescence intensity (a.u.).

With “AATCTATGGTCCAAACTATTTCACTCCCTTTTTTCTCTCACGGAGTCACCTAGTGCAG” as the sequence, how does the binding signal read?
Its binding signal is 11000 fluorescence intensity (a.u.).

“CCACTAGATATGCGCGCCTTTGCAAACTTACCACCCAATCCGGAGTCACCTAGTGCAG” was tested. Which binding signal did it give?
Its binding signal is 9200 fluorescence intensity (a.u.).

For “TCGTCTGTTGCCACCCATTTCTTACCCACATGATTTTCTTCGGAGTCACCTAGTGCAG”, which binding signal is on record?
Its binding signal is 8560 fluorescence intensity (a.u.).

For “ATCCCGGGCTGCCAAAGGAGCCCTTATATGATTCCCACGCCGGAGTCACCTAGTGCAG”, which binding signal is on record?
Its binding signal is 8500 fluorescence intensity (a.u.).

For “GCATATGGGGATTCTGGGATTTTGGTTTACAGTCTACATTCGGAGTCACCTAGTGCAG”, which binding signal is on record?
The binding signal was 8100 fluorescence intensity (a.u.).

How did the binding signal turn out when “TCTATGTGTGCATCTGTTGCAGCTCAAATTATTTTCATGTCGGAGTCACCTAGTGCAG” was run?
The binding signal was 8480 fluorescence intensity (a.u.).

How did the binding signal turn out when “TGATATTTCTAAGAAGTTGGGTTTGTTGATGTTATTTCTTCGGAGTCACCTAGTGCAG” was run?
Its binding signal is 8280 fluorescence intensity (a.u.).

Which binding signal does the source give for “AATTCGTTTTGCGGGCGGGAGGAATTAACTCTCAGAACCACGGAGTCACCTAGTGCAG” here?
Its binding signal is 9460 fluorescence intensity (a.u.).

How did the binding signal turn out when “GGTCAGTCAGTCACTCACAGTATCCGATCCGATCTGGAGTCGGAGTCACCTAGTGCAG” was run?
The binding signal was 11100 fluorescence intensity (a.u.).

With “CTCCGATACCGTCATCTCACCACACAAACGCAGGCACACACGGAGTCACCTAGTGCAG” as the sequence, how does the binding signal read?
Its binding signal is 9630 fluorescence intensity (a.u.).

How did the binding signal turn out when “AGTTATGTGATTATGTTGTTGTTGTTGTTCTTGGATGTGACGGAGTCACCTAGTGCAG” was run?
Its binding signal is 11200 fluorescence intensity (a.u.).

“ACTCTCTTCACACTGCAAGCATCGATTAGTGGGACCATAACGGAGTCACCTAGTGCAG” was tested. Which binding signal did it give?
The binding signal was 9220 fluorescence intensity (a.u.).

For “GGCTTCCAAACCACTTCGGGTTTTGATATGTGATAACCTTCGGAGTCACCTAGTGCAG”, which binding signal is on record?
Its binding signal is 8190 fluorescence intensity (a.u.).

How did the binding signal turn out when “ATCTAACTGCATGCATGCATACAGGCCTCTTTAAGCATGGCGGAGTCACCTAGTGCAG” was run?
Its binding signal is 8320 fluorescence intensity (a.u.).

“GTTTTCATATCTGAGGTTTTCAATTTTGATTCCTACTCCGCGGAGTCACCTAGTGCAG” was tested. Which binding signal did it give?
Its binding signal is 9400 fluorescence intensity (a.u.).

For “TCTCGTCTCCGCCACCGTGCGCGCGTCCCCTATATTAGACCGGAGTCACCTAGTGCAG”, which binding signal is on record?
Its binding signal is 10400 fluorescence intensity (a.u.).

How did the binding signal turn out when “CACATTTGCCAGCACCGAGATCTCCAGAGCCAGATATTCCCGGAGTCACCTAGTGCAG” was run?
Its binding signal is 9680 fluorescence intensity (a.u.).

For “TGTACGTGGTCGTTTCAGTCGTCATTGTGAAAATTTCGATCGGAGTCACCTAGTGCAG”, which binding signal is on record?
Its binding signal is 8460 fluorescence intensity (a.u.).

Which binding signal does the source give for “ATGCATGTTGTGTGAACCGTTGATGTTTCTGGATTCAACTCGGAGTCACCTAGTGCAG” here?
The binding signal was 9410 fluorescence intensity (a.u.).

With “CGATCGGGCCGCGGCGCGAGGGAGGGGATCGGTGCGCGCGCGGAGTCACCTAGTGCAG” as the sequence, how does the binding signal read?
The binding signal was 8060 fluorescence intensity (a.u.).

How did the binding signal turn out when “GAGGAGGGACTCGGGGCGGGAGGAAGACGGCGAGGAGGGGCGGAGTCACCTAGTGCAG” was run?
Its binding signal is 16500 fluorescence intensity (a.u.).

How did the binding signal turn out when “GCTTCCCAAATAGTCCTAACTCCAAGTCTTTTTTTTTAACCGGAGTCACCTAGTGCAG” was run?
The binding signal was 8290 fluorescence intensity (a.u.).

“CAACCAGCCAACTGTCCACCTAATGCTCAGATTAACACTACGGAGTCACCTAGTGCAG” was tested. Which binding signal did it give?
The binding signal was 8810 fluorescence intensity (a.u.).

With “AAGACAAAATATTCTGGTATTCTCATGTGCATTTCATTTTCGGAGTCACCTAGTGCAG” as the sequence, how does the binding signal read?
The binding signal was 8040 fluorescence intensity (a.u.).

How did the binding signal turn out when “TTGTTACCGCCTTTTTGACGCCCGCATCTCCGTCCATCGACGGAGTCACCTAGTGCAG” was run?
Its binding signal is 15800 fluorescence intensity (a.u.).

How did the binding signal turn out when “CGTGTTCGGTGTTTCGGTGCGGCGGCCATATATACGCGCGCGGAGTCACCTAGTGCAG” was run?
Its binding signal is 8350 fluorescence intensity (a.u.).

For “CGGCAACGGCAGCGGCAGCGGCAGCATCGACCATGAAGACCGGAGTCACCTAGTGCAG”, which binding signal is on record?
Its binding signal is 9120 fluorescence intensity (a.u.).

Which binding signal does the source give for “TTCTCTATTTGGTTTTGTCACTGGTCAATGCCACCAACTGCGGAGTCACCTAGTGCAG” here?
The binding signal was 8260 fluorescence intensity (a.u.).

Which binding signal does the source give for “CAATTGTTCCACCTCCAGCTGTTCTTGCTACTACAATCTGCGGAGTCACCTAGTGCAG” here?
Its binding signal is 9540 fluorescence intensity (a.u.).

Which binding signal does the source give for “CCTACTCCGTTCAGTTTCTCCCCGGTGTCAAACTTGTCAACGGAGTCACCTAGTGCAG” here?
The binding signal was 9410 fluorescence intensity (a.u.).

How did the binding signal turn out when “AGCCATCTTACATATTATTTTTACTTATTGTTATCATACTCGGAGTCACCTAGTGCAG” was run?
The binding signal was 11400 fluorescence intensity (a.u.).

How did the binding signal turn out when “AGGTACCCGTCGTATTTGGTTTTCTGGTTGAAGGACTTAACGGAGTCACCTAGTGCAG” was run?
The binding signal was 10600 fluorescence intensity (a.u.).

With “ATTCTGCCCACCTGCTTACAATCTATTTCAGTTCTGTTGCCGGAGTCACCTAGTGCAG” as the sequence, how does the binding signal read?
Its binding signal is 12000 fluorescence intensity (a.u.).

Which binding signal does the source give for “TTAGTGCACATGTCATTCGGATGGTGAGTTATTTTCTAATCGGAGTCACCTAGTGCAG” here?
Its binding signal is 8440 fluorescence intensity (a.u.).

“TTCCTGTCTTTCATTCATTATTTGAAAGTGGATTTTTTATCGGAGTCACCTAGTGCAG” was tested. Which binding signal did it give?
The binding signal was 8830 fluorescence intensity (a.u.).

With “GAAACTCCGTTCTTTCTTCCTTTTGGCCCAATCTTTTATCCGGAGTCACCTAGTGCAG” as the sequence, how does the binding signal read?
The binding signal was 9760 fluorescence intensity (a.u.).

Which binding signal does the source give for “TAGGCCAGGGTGGGAGACCTATTGATAATTTTTACACTTACGGAGTCACCTAGTGCAG” here?
Its binding signal is 11400 fluorescence intensity (a.u.).

For “GTTGAATCTATCATAACCATTGCTGTGTGTGCCAGGCCAACGGAGTCACCTAGTGCAG”, which binding signal is on record?
Its binding signal is 8150 fluorescence intensity (a.u.).

Which binding signal does the source give for “AAGTTCTCGTCAATTTTTTTTGTTCGCTGATCAACTATAGCGGAGTCACCTAGTGCAG” here?
The binding signal was 8040 fluorescence intensity (a.u.).

Which binding signal does the source give for “GGTTGGGTGTTTTTGCTTCTCTTGTAGTCTTTGTGTAGAACGGAGTCACCTAGTGCAG” here?
The binding signal was 21500 fluorescence intensity (a.u.).

How did the binding signal turn out when “CTACAGTCGATTTTTTTTCAGCCACTTACACAGTATTTATCGGAGTCACCTAGTGCAG” was run?
Its binding signal is 9800 fluorescence intensity (a.u.).

With “GCTCGATTGCCTTTTCATCATTCACATTGTTCTTCTTCTTCGGAGTCACCTAGTGCAG” as the sequence, how does the binding signal read?
Its binding signal is 9180 fluorescence intensity (a.u.).

For “AGGGACCTTCGGTGTACTTTTTCCTTTTTTTTACTTTGAGCGGAGTCACCTAGTGCAG”, which binding signal is on record?
The binding signal was 9610 fluorescence intensity (a.u.).
